From article PMC8213820

Key:
[1] = molecular target: recombinant RON13 dead kinase (Toxoplasma gondii); experiment: HDX-MS; 60 pmol (1.3 uM) rRON13dk alone or with a threefold molar excess of RON4; 81.0% D2O, 22 °C, 3 sec, 30 sec, 5 min; 10 mM HEPES pH 7.5, 100 mM NaCl, 0.5 mM EDTA; both purified
[2] = molecular target: recombinant RON13 dead kinase (rRON13dk) (Toxoplasma gondii); experiment: HDX-MS; 1.3 uM (60 pmol) rRON13dk alone or preincubated with a threefold molar excess of recombinant RON4; exchange for 3, 30 and 300 s at room temperature in 96% D2O, 10 mM HEPES pH 7.5, 100 mM NaCl, 0.5 mM EDTA; both purified

B1: recombinant dephosphorylated RON4 (protein, UniProt B6KJ32 27-984)
chain: SPPTPAPRMYPNMNERPLSAESRLTPGTYRSELHIDLKSPQKTASQSSLAPTGDNNSKVESIIAGSDTTPRSAEGTSESPPVPQLGTPPRPAPRRSKGEGERQPPTAAPRTSRSVDTGSGSDASTEQQAGGQKVVTPIPASKGIYPSLDELRRSQESNVDAGSGTSTNEGGGTSEGPQVPQSGIPPRTGRRRAKARNRKRHPTPASRESSSEDENQPPTTASRPSNGEGESQPPTAAPRTSRSVDTGSGSDASTEQQAGGQKVVTPIPASKGIYPNLDELRQTQEGEESAPQPADVTWFSMSVPMGVVDRRVSRALKEQFFQFLQHLSADYPKQVQTVYEFLGWVADKLPENEEEVQMFIDALNTTEAMVGKAARWIFKAIPERERETIYSSFYQMFRDKLPKKFFETAEGMNPDVGQYFSAEEPVAVTPEIPAKSEEDSEAAETPTPLRRQANVAAQVLHPLPAKGVTRREWIPWPKMQNAISKAHGPLTRVPEWTPVTGSCALGDGYTDIDVTKATTDVLFRITLLILQQIRRKKTERGKLEDDQALVALCSAAGAFVDAWQHQQQALILEDPGTPKAHAQLIERLRNAGKYFMKSYDETTGESDHQQWKKNKAEVSKLGKSALMKSCVKYIKASGDVATRPFDSGTAKYPSRSLYGGIANTLETPFADSEAVAKAVHDYAKEHKKPEKLVGLCGALQISGYFKKCFSDAGRLSSVSFFHQHVDGASVLVRTLARERPIGRHALSQAICDPNISAQYFEGAFRLFSSTVSQEWEKENLFAQLASWTGKEMVLAPSLEEQAAVPPAQPAYETVYGDEEDRIYRIHVSGRHSSPQEVLYVGGIPSTVKPQQVHVLGPTVSDESRRMIHPVRHRSRTAPSSEAASTAAESSDEDPLPAENATAFLGVTPQEEESDAYKHTLDFDAVSPRKNKNKENRISAPLKQSDTLIEESTSKTSEL
modifications: dephosphorylated with alkaline phosphatase (CIAP)
[1]
  binding: binds

B2: recombinant dephosphorylated RON4 (rRON4) (protein, UniProt B6KJ32 27-984)
chain: SPPTPAPRMYPNMNERPLSAESRLTPGTYRSELHIDLKSPQKTASQSSLAPTGDNNSKVESIIAGSDTTPRSAEGTSESPPVPQLGTPPRPAPRRSKGEGERQPPTAAPRTSRSVDTGSGSDASTEQQAGGQKVVTPIPASKGIYPSLDELRRSQESNVDAGSGTSTNEGGGTSEGPQVPQSGIPPRTGRRRAKARNRKRHPTPASRESSSEDENQPPTTASRPSNGEGESQPPTAAPRTSRSVDTGSGSDASTEQQAGGQKVVTPIPASKGIYPNLDELRQTQEGEESAPQPADVTWFSMSVPMGVVDRRVSRALKEQFFQFLQHLSADYPKQVQTVYEFLGWVADKLPENEEEVQMFIDALNTTEAMVGKAARWIFKAIPERERETIYSSFYQMFRDKLPKKFFETAEGMNPDVGQYFSAEEPVAVTPEIPAKSEEDSEAAETPTPLRRQANVAAQVLHPLPAKGVTRREWIPWPKMQNAISKAHGPLTRVPEWTPVTGSCALGDGYTDIDVTKATTDVLFRITLLILQQIRRKKTERGKLEDDQALVALCSAAGAFVDAWQHQQQALILEDPGTPKAHAQLIERLRNAGKYFMKSYDETTGESDHQQWKKNKAEVSKLGKSALMKSCVKYIKASGDVATRPFDSGTAKYPSRSLYGGIANTLETPFADSEAVAKAVHDYAKEHKKPEKLVGLCGALQISGYFKKCFSDAGRLSSVSFFHQHVDGASVLVRTLARERPIGRHALSQAICDPNISAQYFEGAFRLFSSTVSQEWEKENLFAQLASWTGKEMVLAPSLEEQAAVPPAQPAYETVYGDEEDRIYRIHVSGRHSSPQEVLYVGGIPSTVKPQQVHVLGPTVSDESRRMIHPVRHRSRTAPSSEAASTAAESSDEDPLPAENATAFLGVTPQEEESDAYKHTLDFDAVSPRKNKNKENRISAPLKQSDTLIEESTSKTSEL
[2]
  binding: binds

No constants are given. Whether binding was seen depends on the method and setting. A result given as binding can be weak or reduced; the word gives no strength.
